Results are given in words; binding and its absence hold for the method and conditions named. Binding seen in cells or lysates may run through a third protein. Some binding calls cover weakened binding; strength is not graded here.
Columns and labels:
[1] = biological target: T1, myostatin C-terminal dimer (human) (UniProt O14793); assay: co-purification of the latent complex from CHO conditioned medium (FIG. 3C)
T1 sequence: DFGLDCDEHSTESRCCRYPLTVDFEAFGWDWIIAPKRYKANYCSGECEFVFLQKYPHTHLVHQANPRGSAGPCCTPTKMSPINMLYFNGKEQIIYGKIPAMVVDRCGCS

[2] = biological target: T1, myostatin C-terminal dimer (human); assay: co-purification from CHO conditioned medium, SDS-PAGE and western blot (FIG. 3C)
[3] = biological target: T1, myostatin C-terminal dimer (human); assay: co-purification over hydroxyapatite, lentil lectin, DEAE agarose and heparin columns (FIG. 3C)

| Substance | binding [1] | binding [2] | binding [3] |
| --- | --- | --- | --- |
| D76A mutant myostatin pro peptide (from UniProt O14793 24-266) | binds | binds |  |
| myostatin pro peptide (wild type) (from UniProt O14793 24-266) |  | binds | binds |

Reference: patent US20040138118A1
